Results taken from article PMC7819943, “Rice protein-binding microarrays: a tool to detect cis-acting elements near promoter regions in rice”.
The list shows a part of the results.

target: T1, OsSMF1 (Oryza sativa, UniProt Q6ZLB0 1-436); assay: protein-binding microarray (RPBM); PBS, 2% BSA, 51.3 ng/ul salmon testes DNA, 50 uM zinc acetate, 200 nM TF, 25 C, 1 h; high values mean tight binding; details: protein: recombinant; tags: N-terminal polyhistidine and DsRed monomer fusion (pET32a); chain copies: 2; label: CyDye5-dUTP incorporated in the synthesized complementary strand; 3' TTTTT single-stranded linker to array surface; dsDNA, one strand shown
T1 sequence: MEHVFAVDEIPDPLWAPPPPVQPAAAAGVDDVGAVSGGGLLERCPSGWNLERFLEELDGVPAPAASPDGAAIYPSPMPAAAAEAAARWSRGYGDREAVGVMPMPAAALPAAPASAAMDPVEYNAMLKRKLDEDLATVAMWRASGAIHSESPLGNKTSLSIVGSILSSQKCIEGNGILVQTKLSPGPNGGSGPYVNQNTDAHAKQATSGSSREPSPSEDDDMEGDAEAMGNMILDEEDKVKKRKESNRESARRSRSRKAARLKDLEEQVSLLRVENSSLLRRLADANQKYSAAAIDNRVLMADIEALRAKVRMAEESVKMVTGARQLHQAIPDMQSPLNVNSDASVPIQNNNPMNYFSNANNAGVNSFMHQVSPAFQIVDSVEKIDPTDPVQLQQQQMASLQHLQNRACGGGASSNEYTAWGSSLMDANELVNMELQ
Outline: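 The binding signal is fluorescence intensity per array feature (arbitrary units). Readings came from an Axon 4000B scanner after a washed, 2% BSA-blocked, double-stranded custom Agilent array had been incubated for 1 h at 25 °C with 200 nM protein and 50 µM zinc acetate. The protein was a Ni–NTA-purified transcription factor fused N-terminally to polyhistidine and DsRed, expressed in E. coli BL21-CodonPlus.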

Sequence	binding signal
CTGAATTTGACTCTTGGATGGTGACTATGATGTCCAAGTACGGAGTCACCTAGTGCAG	45100 fluorescence intensity (a.u.)
ACATGAGGCAGCTTTCCATATCACCGTATCCATAGCCCATCGGAGTCACCTAGTGCAG	3580 fluorescence intensity (a.u.)
AAATAAAATGCTAACTGGATTGCCACGCGTATAAAACAGCCGGAGTCACCTAGTGCAG	7090 fluorescence intensity (a.u.)
TAACATTGTTTCTGACTTGCTGAGTTGTACTAAAACTTTGCGGAGTCACCTAGTGCAG	4020 fluorescence intensity (a.u.)
CAACACTCTTCCGAAGCATTAAGAATCACCTACACATGCACGGAGTCACCTAGTGCAG	20700 fluorescence intensity (a.u.)
GCACAACCGCACACGAGACGACGTCACCCACAACCGCACGCGGAGTCACCTAGTGCAG	6040 fluorescence intensity (a.u.)
GATGGTACTATCCAATAGTTTCCCTGTTACGAACTCCTCCCGGAGTCACCTAGTGCAG	7030 fluorescence intensity (a.u.)
GTTTTGTCTCACGTGACGGCTGAGTCAGCGTGAGACCCACCGGAGTCACCTAGTGCAG	10600 fluorescence intensity (a.u.)
CTTACAACTAGGGATGGATGGTGTCATGAAGGTCCTTAGACGGAGTCACCTAGTGCAG	3560 fluorescence intensity (a.u.)
CCTGCTGACAATGCATTGACACATTGATGGACTGTAGGACCGGAGTCACCTAGTGCAG	10200 fluorescence intensity (a.u.)
CCAGCATCATCACCGCATCACGTCCTCGTCGGCCTCCACGCGGAGTCACCTAGTGCAG	5470 fluorescence intensity (a.u.)
GGCGTCCGTGGTGACTCGTCAACTCAACATATGCCGTTCCCGGAGTCACCTAGTGCAG	3640 fluorescence intensity (a.u.)
AGCCAAAATAACTCAGCACCGAGTATAGCCACAACGTCACCGGAGTCACCTAGTGCAG	3190 fluorescence intensity (a.u.)
AGTACTTCACGTCAGAATAATGTGTGACTATGATGTGTGGCGGAGTCACCTAGTGCAG	6110 fluorescence intensity (a.u.)
CTCCTCACTTCTGTCATCATCTCTCTCAGACTTCTCTTTCCGGAGTCACCTAGTGCAG	3820 fluorescence intensity (a.u.)
TTGTTTCGTATGTCTCTAGTGTGACTATTGCATGTACTTGCGGAGTCACCTAGTGCAG	3510 fluorescence intensity (a.u.)
AGCGTAGGCGGAATAGCATCCTAGGGCGCACGCGTCACGCCGGAGTCACCTAGTGCAG	5260 fluorescence intensity (a.u.)
CGTCGTCCCTGCGCGTCTGTGACGTCTGCTGCTGACTCGTCGGAGTCACCTAGTGCAG	5340 fluorescence intensity (a.u.)
TGAGACAATGATAACTTGGAACACTAGCTGTACCGTTAGACGGAGTCACCTAGTGCAG	26800 fluorescence intensity (a.u.)
GGAGGACGACGTGTCCGAGCTGCAGTGGCGCCGCATGGTGCGGAGTCACCTAGTGCAG	8120 fluorescence intensity (a.u.)
TCGCTTCCCTTCCCTCCTCACCTCTCCCGCGCGCGCGAGTCGGAGTCACCTAGTGCAG	32500 fluorescence intensity (a.u.)

Sequence	binding signal
AGCCTCTCCACTACCTCTCCCTCCACCTGTCGCCTAAACCCGGAGTCACCTAGTGCAG	3200 fluorescence intensity (a.u.)
CCCAACCGTCCTATATATGCCCAGGTCTCAAATGTCAGCTCGGAGTCACCTAGTGCAG	4040 fluorescence intensity (a.u.)
CCTGACCCACATGTCATTGACTCATATGGGTCCTCATATCCGGAGTCACCTAGTGCAG	4870 fluorescence intensity (a.u.)
GCACCTACACTGCTACACATCACTTCCTAATTGATTAAGCCGGAGTCACCTAGTGCAG	3180 fluorescence intensity (a.u.)
GGGCTGGCGGCCGACGACGGCGCGGGCCGAAGGGAGGTGGCGGAGTCACCTAGTGCAG	3330 fluorescence intensity (a.u.)
TGGGTAGTGATTACCCATACCCATGCCCATTTACCCATCACGGAGTCACCTAGTGCAG	3150 fluorescence intensity (a.u.)
ATAGTTTGACATCATCATGCCCTGCTGTCTGCTAGAACATCGGAGTCACCTAGTGCAG	5040 fluorescence intensity (a.u.)
GCGCCCACCGACGTCATCACGCTCCGCCCCAAGCACGGCCCGGAGTCACCTAGTGCAG	9150 fluorescence intensity (a.u.)
GTTTTGCACCTTATTTGACATGTATGCACTGTTGTATATTCGGAGTCACCTAGTGCAG	3160 fluorescence intensity (a.u.)
TATCATGTTGGCCCAACACATCATACACGTAAGATCTGGCCGGAGTCACCTAGTGCAG	8420 fluorescence intensity (a.u.)
ATTACATGAACCCCACCTGTCAGTGACACAAACATCCCACCGGAGTCACCTAGTGCAG	4040 fluorescence intensity (a.u.)
GTTCTCATCCCCTCTCACCGAGCCGAGGAGAGCCGAGCCACGGAGTCACCTAGTGCAG	3210 fluorescence intensity (a.u.)
ATCCAATGGCTCAGATCGGTCCACGTTTCCCTCAGACTCGCGGAGTCACCTAGTGCAG	3260 fluorescence intensity (a.u.)
CGCTGGTGGTAGCTTTGCTGACTATAATAATGTCCATATACGGAGTCACCTAGTGCAG	3680 fluorescence intensity (a.u.)
ACATCATCCTCCAGTCACGTCGTCCTCCTCCACCTCGGGTCGGAGTCACCTAGTGCAG	25200 fluorescence intensity (a.u.)
ACTCCTACTTTTCAGTCAAGGAGGAAGAAGTGTCGAATTTCGGAGTCACCTAGTGCAG	21900 fluorescence intensity (a.u.)
TCACATCCGAGCTGAGCTCCTGACACAGTGACACTACTGGCGGAGTCACCTAGTGCAG	4310 fluorescence intensity (a.u.)
TAGCAAAATCGTAAATAAAATTCAGCACTAGTCATATCCACGGAGTCACCTAGTGCAG	3660 fluorescence intensity (a.u.)
TTAGATAGCCGTAGATTACACCTCATCTCTCGCCACCTTACGGAGTCACCTAGTGCAG	5070 fluorescence intensity (a.u.)
TACTTACCCCTATCTTCATCATCGTCATCTGTATAACAAACGGAGTCACCTAGTGCAG	3260 fluorescence intensity (a.u.)
CAGAACACTTCATAATATTACGTGATACTATATATTATTGCGGAGTCACCTAGTGCAG	3160 fluorescence intensity (a.u.)

Sequence	binding signal
ACCATGTTCTAATGTGACACCCCGTTTTCCATGTGGAGAGCGGAGTCACCTAGTGCAG	4990 fluorescence intensity (a.u.)
CGGGCGCACGTGTTTCATCCCTCTAATTCTGAATCCCCACCGGAGTCACCTAGTGCAG	3440 fluorescence intensity (a.u.)
ATTGTTGAGGGGAATACCACGTGTGGTATTTGCAATATGCCGGAGTCACCTAGTGCAG	4370 fluorescence intensity (a.u.)
TGTTCTGTGTTCGTGTTTGGGATTGGGCGCGGCGTGTGCCCGGAGTCACCTAGTGCAG	12500 fluorescence intensity (a.u.)
ACCATCTCCCTGCGTGCGTTGGCAACCAAAGGAGATACCACGGAGTCACCTAGTGCAG	4070 fluorescence intensity (a.u.)
TTATATTAAAAGAATTGCTGACTGTACTCCCACGTTTACTCGGAGTCACCTAGTGCAG	16100 fluorescence intensity (a.u.)
CACCCGCCGCTGCTCTGCCTACTCGCCGGCCACCTCCTCACGGAGTCACCTAGTGCAG	3720 fluorescence intensity (a.u.)
GGTGGCCTCCCTTTCGTCTTCAACAAGGTTTGCGTCGGCGCGGAGTCACCTAGTGCAG	3450 fluorescence intensity (a.u.)
AGCCTCATCCGCTCCCTTGTCTCCATCATCACCGTCGCCACGGAGTCACCTAGTGCAG	3550 fluorescence intensity (a.u.)
AGCGGCGGCTGCCACGTCCTCTACTGGATCGATAGATCGACGGAGTCACCTAGTGCAG	13700 fluorescence intensity (a.u.)
ATAGTTGTGATTAGATTGTGACGTACACAATGAGTATGCACGGAGTCACCTAGTGCAG	5250 fluorescence intensity (a.u.)
AGGAGCACGGACACCACGGTGGCGGTGACGCTGTCGTCATCGGAGTCACCTAGTGCAG	6180 fluorescence intensity (a.u.)
CTCTTTCACTCGCTCACCTGCTCCATGCTCGTCCAGTACTCGGAGTCACCTAGTGCAG	3270 fluorescence intensity (a.u.)
CACACCACATCACACCGCACACCACACCGATCCCGACCAACGGAGTCACCTAGTGCAG	3230 fluorescence intensity (a.u.)
AATGCCCTAGCAAGGCCCACACGTGGCGCCTCCTCCTCCTCGGAGTCACCTAGTGCAG	13400 fluorescence intensity (a.u.)
CTAGCTTTTCTAGATTCTTAGAAGCTGACTACCAACCAGCCGGAGTCACCTAGTGCAG	3410 fluorescence intensity (a.u.)
ACCAGCCACGTAGGCGCCACGTCAGCTAAAACCGCCTTCACGGAGTCACCTAGTGCAG	19900 fluorescence intensity (a.u.)
CAAAGCAATCTTGGAGTCATCTTCATTTCCATGTCCTGTTCGGAGTCACCTAGTGCAG	3410 fluorescence intensity (a.u.)
GCCACCTCGGCCTCCTCCTCCTCGACATCCACGTCGCTCGCGGAGTCACCTAGTGCAG	4090 fluorescence intensity (a.u.)
GACGGCTCTGGCAAGCGAGGGCCACGATTGCGACGAGCGGCGGAGTCACCTAGTGCAG	3390 fluorescence intensity (a.u.)
CGCCGGCGTCGGACGCTGCCTGCGCCGAGGGCGCTGCTGCCGGAGTCACCTAGTGCAG	3390 fluorescence intensity (a.u.)

Single values from the results shown:
Under binding signal, GATGGTACTATCCAATAGTTTCCCTGTTACGAACTCCTCCCGGAGTCACCTAGTGCAG reads 7030 fluorescence intensity (a.u.)
Under binding signal, CTCCTCACTTCTGTCATCATCTCTCTCAGACTTCTCTTTCCGGAGTCACCTAGTGCAG reads 3820 fluorescence intensity (a.u.)
Under binding signal, TAACATTGTTTCTGACTTGCTGAGTTGTACTAAAACTTTGCGGAGTCACCTAGTGCAG reads 4020 fluorescence intensity (a.u.)
Under binding signal, TCGCTTCCCTTCCCTCCTCACCTCTCCCGCGCGCGCGAGTCGGAGTCACCTAGTGCAG reads 32500 fluorescence intensity (a.u.)

The listing continues:

Sequence	binding signal
CCGCCGGTCGCTGAGCCGGGACTCGCTGCCGCGGTGCGTCCGGAGTCACCTAGTGCAG	35400 fluorescence intensity (a.u.)
ACCCGCCGCGCCTCCTGCGCCGCCGCCGCCGCGGCCCCTGCGGAGTCACCTAGTGCAG	5790 fluorescence intensity (a.u.)
CGAAGCCTCGATGTCACGCGGACGCCAACACAGCAGGCGCCGGAGTCACCTAGTGCAG	3200 fluorescence intensity (a.u.)
ATGGAAGAAATGATAGGCTTGTCTAATAATTGTTGGTTGTCGGAGTCACCTAGTGCAG	33200 fluorescence intensity (a.u.)
CACCGCCACGGCCCGCGCTGCGTCAGCCGACGAACCCACCCGGAGTCACCTAGTGCAG	4430 fluorescence intensity (a.u.)
GCTAGCCTTCCTTGCCAACTTTGCACATGTATATAGAGTCCGGAGTCACCTAGTGCAG	3390 fluorescence intensity (a.u.)
TGTTAGAAAGTCTTATAATATAAAACGGAGGAAATATTTACGGAGTCACCTAGTGCAG	6480 fluorescence intensity (a.u.)
TTTAATTCAAATGCCAGCTAAGCGCTACGTCAACCCTACACGGAGTCACCTAGTGCAG	15500 fluorescence intensity (a.u.)
TGATCTCCTTCACTAAAAGAACTGTACGCTTGTTCTTTTGCGGAGTCACCTAGTGCAG	3870 fluorescence intensity (a.u.)
TGTCGCTGTTGTATACAGTGTATGAGTGTGTGACTGTGTGCGGAGTCACCTAGTGCAG	6540 fluorescence intensity (a.u.)
AACAGAGGTATTCTTCGTGTCTATGGGCCTGTTTGGGGAGCGGAGTCACCTAGTGCAG	26300 fluorescence intensity (a.u.)
TAATTTGTACCCGCGTACGTGTACACGTTGCTGACTTGCTCGGAGTCACCTAGTGCAG	10600 fluorescence intensity (a.u.)
CGCATACCGGCCAGAAACACGACGGCGACGAGGTGCACTACGGAGTCACCTAGTGCAG	41500 fluorescence intensity (a.u.)
ATTGTCCTCCCTTCTCCTCGCCTGTCAGCCTGTCACTACTCGGAGTCACCTAGTGCAG	3650 fluorescence intensity (a.u.)
CCCCTCTTAATTATTCAACCCTCCCAGAAATATGACTCATCGGAGTCACCTAGTGCAG	6290 fluorescence intensity (a.u.)
TGCGCCGCACCGCGTCGCGCCACGCCGCGTGGGCCCGCGGCGGAGTCACCTAGTGCAG	3790 fluorescence intensity (a.u.)
ATCCGGGCCGTCCGATCCCGCCACGTGGACGACGGAAACCCGGAGTCACCTAGTGCAG	20800 fluorescence intensity (a.u.)
TTCCGGTGGGGACGGCGCGGCGGACGTGGAGGTGGAGCGGCGGAGTCACCTAGTGCAG	6660 fluorescence intensity (a.u.)
CGGTGCTTGTGGTTTGACTACTGAACGATGTACAACCGCGCGGAGTCACCTAGTGCAG	3570 fluorescence intensity (a.u.)
AAGCATAAAACCAATCCTAGCTTCTTTTCCTAAACCCAACCGGAGTCACCTAGTGCAG	14600 fluorescence intensity (a.u.)
CAGTGTTACATCATCGACCGGTTATCATCTTTGTTTCGATCGGAGTCACCTAGTGCAG	3580 fluorescence intensity (a.u.)
